From PubChem BioAssay AID2662 (National Center for Advancing Translational Sciences (NCATS), 2010)
In all, about 290,000 compounds went through this assay and about 110 (0.038%) were called active. Inconclusive results, whose numbers are uncertain, are shown with a selection of clear calls. Calls follow the shape of the dose curve; as a rule, active = well fitted inhibition curve with a large enough effect in the polarisation, with a control signal flat (not every such curve was filed as active); inconclusive = small, poorly fitted or top-dose-only effect, or effect the other way, or a change in a side signal; inactive = no such curve, though single readings can be large or run the other way; the % refers to the polarisation. A potency beside an inconclusive call is a rough fit, not a confirmed value. A note “side channel” means that the fit belongs to a control or component signal, not to the main read-out.

By UniProt entry, the sequences of proteins in these tests, tags left out.
UniProt Q03164, whole entry, looked up: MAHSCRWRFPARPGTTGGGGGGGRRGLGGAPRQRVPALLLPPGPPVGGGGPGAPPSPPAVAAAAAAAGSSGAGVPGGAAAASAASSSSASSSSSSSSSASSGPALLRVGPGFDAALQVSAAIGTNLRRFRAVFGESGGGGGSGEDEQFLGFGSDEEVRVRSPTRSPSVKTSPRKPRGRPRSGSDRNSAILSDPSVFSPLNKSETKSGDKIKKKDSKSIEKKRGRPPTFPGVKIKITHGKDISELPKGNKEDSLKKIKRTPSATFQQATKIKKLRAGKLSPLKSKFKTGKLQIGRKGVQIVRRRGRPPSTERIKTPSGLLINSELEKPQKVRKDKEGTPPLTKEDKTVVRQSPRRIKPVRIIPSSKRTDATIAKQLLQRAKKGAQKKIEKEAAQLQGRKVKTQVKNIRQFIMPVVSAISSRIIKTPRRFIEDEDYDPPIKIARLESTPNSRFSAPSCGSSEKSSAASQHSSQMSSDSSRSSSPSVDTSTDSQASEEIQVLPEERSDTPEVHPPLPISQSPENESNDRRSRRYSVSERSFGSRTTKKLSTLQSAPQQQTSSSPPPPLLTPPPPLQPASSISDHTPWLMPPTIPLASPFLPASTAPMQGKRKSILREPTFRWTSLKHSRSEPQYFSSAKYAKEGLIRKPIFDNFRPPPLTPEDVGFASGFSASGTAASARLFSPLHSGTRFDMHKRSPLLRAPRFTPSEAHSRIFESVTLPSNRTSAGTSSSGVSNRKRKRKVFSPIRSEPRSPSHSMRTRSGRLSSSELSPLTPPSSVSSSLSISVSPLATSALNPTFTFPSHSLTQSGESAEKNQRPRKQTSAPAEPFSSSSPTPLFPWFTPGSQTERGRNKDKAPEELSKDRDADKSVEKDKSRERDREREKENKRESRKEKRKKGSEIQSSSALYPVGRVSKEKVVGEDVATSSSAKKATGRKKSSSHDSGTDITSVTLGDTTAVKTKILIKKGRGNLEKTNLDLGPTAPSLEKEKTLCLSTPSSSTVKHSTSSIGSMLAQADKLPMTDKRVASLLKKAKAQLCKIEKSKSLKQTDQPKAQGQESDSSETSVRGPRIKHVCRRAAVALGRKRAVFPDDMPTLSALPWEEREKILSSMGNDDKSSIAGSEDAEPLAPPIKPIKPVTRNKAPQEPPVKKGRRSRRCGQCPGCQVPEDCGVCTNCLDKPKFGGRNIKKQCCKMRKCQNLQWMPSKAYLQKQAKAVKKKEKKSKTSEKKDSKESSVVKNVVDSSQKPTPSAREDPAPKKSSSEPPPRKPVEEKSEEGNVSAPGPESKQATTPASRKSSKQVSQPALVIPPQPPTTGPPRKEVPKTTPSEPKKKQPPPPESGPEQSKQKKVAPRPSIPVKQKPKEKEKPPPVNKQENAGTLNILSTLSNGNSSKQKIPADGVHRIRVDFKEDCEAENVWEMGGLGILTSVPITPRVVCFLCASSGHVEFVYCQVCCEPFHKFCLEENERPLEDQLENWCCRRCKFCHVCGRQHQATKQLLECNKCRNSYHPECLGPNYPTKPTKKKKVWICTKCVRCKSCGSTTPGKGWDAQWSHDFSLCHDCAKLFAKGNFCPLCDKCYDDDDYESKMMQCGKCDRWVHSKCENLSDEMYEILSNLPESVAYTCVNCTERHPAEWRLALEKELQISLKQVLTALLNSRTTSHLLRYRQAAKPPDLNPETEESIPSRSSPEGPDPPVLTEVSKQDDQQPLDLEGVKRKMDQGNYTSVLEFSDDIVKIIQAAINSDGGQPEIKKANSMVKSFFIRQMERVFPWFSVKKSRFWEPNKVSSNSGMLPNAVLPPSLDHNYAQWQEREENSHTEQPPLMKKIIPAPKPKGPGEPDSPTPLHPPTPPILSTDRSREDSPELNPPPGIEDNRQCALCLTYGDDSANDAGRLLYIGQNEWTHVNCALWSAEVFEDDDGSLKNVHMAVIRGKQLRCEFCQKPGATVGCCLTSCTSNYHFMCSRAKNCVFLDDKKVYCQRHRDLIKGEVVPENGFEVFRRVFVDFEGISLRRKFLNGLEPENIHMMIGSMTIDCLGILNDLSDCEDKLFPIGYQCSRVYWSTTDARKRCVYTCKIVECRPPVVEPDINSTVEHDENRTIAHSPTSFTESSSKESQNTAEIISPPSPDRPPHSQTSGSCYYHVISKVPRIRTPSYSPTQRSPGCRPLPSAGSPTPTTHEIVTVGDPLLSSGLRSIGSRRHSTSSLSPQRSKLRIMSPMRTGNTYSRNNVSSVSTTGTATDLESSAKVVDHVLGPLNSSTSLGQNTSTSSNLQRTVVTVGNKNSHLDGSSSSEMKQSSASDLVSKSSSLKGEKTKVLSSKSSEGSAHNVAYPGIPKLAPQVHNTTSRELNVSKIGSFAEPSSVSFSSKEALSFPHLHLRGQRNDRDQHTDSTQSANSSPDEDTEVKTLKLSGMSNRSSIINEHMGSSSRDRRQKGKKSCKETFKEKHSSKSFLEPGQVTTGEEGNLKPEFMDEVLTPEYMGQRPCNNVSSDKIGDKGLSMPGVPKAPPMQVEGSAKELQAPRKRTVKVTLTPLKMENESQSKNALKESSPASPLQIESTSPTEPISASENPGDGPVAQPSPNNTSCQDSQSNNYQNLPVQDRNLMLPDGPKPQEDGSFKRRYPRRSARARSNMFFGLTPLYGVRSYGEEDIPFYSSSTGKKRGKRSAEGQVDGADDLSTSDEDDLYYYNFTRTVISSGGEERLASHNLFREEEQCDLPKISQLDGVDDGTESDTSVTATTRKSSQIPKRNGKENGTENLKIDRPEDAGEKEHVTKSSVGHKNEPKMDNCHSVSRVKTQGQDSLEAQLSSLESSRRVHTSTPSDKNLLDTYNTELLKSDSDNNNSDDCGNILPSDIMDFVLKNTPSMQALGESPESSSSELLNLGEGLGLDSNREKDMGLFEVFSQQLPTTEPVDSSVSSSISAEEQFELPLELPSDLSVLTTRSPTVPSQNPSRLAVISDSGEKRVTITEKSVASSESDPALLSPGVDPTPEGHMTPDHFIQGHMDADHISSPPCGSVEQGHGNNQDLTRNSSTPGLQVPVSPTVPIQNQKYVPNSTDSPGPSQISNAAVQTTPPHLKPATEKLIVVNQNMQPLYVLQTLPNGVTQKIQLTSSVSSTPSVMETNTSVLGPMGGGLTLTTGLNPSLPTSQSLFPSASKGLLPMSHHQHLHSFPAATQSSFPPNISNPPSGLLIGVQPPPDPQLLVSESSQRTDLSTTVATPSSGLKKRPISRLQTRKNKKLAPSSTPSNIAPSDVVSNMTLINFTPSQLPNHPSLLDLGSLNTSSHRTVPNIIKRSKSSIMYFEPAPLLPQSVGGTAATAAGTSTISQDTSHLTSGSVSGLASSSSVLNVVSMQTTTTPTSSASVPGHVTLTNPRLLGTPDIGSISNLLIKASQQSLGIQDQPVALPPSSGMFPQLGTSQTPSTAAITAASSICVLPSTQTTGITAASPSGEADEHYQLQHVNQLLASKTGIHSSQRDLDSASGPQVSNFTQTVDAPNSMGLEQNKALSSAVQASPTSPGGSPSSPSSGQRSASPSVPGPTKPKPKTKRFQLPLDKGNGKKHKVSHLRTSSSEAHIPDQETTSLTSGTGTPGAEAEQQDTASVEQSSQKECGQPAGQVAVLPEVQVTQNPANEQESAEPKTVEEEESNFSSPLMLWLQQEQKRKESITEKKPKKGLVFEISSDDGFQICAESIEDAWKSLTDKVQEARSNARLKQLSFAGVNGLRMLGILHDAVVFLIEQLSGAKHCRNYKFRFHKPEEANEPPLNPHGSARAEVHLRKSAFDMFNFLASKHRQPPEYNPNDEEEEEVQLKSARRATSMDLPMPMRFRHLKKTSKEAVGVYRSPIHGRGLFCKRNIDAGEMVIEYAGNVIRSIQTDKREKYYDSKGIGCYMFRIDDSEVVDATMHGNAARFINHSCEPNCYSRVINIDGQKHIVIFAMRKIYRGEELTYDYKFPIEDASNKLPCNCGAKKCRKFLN

target: Histone-lysine N-methyltransferase 2A (Homo sapiens) (UniProt Q03164); test: qHTS Fluorescence Polarization Assay for Inhibitors of MLL CXXC domain - DNA interaction; conditions: MLL-CXXC / FITC-HOXA9 DNA fluorescence polarization; series mostly up to 115 µM
Outline: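 Steps: dispense CXXC domain solution (7 uM) → pin compounds or unlabeled HOX-A9 DNA control → 5 min ambient → add FLSN-HOX-A9 solution (50 nM) → spin → 30 min ambient → fluorescence polarization. Tris pH 7.5/NaCl/DTT/BSA buffer.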
Potency is read from the fitted curve at half-maximal effect.

Structure (SMILES)	Potency
CCOn1c(=O)c(-c2cc3ccccc3o2)[n+]([O-])c2ccccc21	inconclusive: 63.1 µM [fluorescent, side channel, single point]
COc1ccccc1NC(=O)c1nc(S(=O)(=O)Cc2ccccc2)ncc1Cl	inconclusive: 39.8 µM [quencher, side channel, partial curve]
COCC(C)OC(=O)/C(C#N)=C\c1coc2ccc(C)cc2c1=O (configuration not stated)	inconclusive: 31.6 µM [fluorescent, side channel, partial curve]
CC1CCN(CC(=O)N2CCCc3c2c(=O)oc2ccc(OCc4ccccc4)cc32)CC1	inactive
CCN1CCCC1CNC(=O)c1ccc2c(c1)N(Cc1ccccc1F)C(=O)c1ccccc1S2(=O)=O (configuration not stated)	inconclusive: 15.8 µM [fluorescent, side channel, partial curve, poor fit]
O=S(=O)(NCC1CCN(S(=O)(=O)c2ccccc2)CC1)c1ccccc1	inactive
Cc1cccc(NC(=O)c2cc(NC(=O)C3CCCCC3C(=O)O)ccc2Cl)n1 (configuration not stated)	inactive
CC(C)Cn1nc(NS(=O)(=O)c2ccccc2)c2cc3ccccc3nc21	inconclusive: 50.1 µM [quencher, side channel, single point]
CC1(C)Cc2c(c(-c3ccco3)nc3sc4c(NCCCO)ncnc4c23)CO1	inactive
COc1ccccc1OCC(O)Cn1c(=N)n(Cc2ccccc2)c2ccccc21 (configuration not stated)	inconclusive: 22.4 µM [quencher, side channel, partial curve]
CCn1c(SCC#N)nc2cc(S(=O)(=O)N3CCOCC3)ccc21	inconclusive: 50.1 µM [inhibitor, single point]
Cc1ccc(N(CC(=O)NC2CCCC2)C(=O)CCC(=O)Nc2ccccn2)cc1C	inconclusive: 7.08 µM [fluorescent, side channel, full curve]
Cc1ccc(C)c(OCCCC(=O)Nc2ccc(N3CCOCC3)cc2)c1	inactive
Cc1ccc(NC(=O)CC2C(=O)NCCN2C(=O)c2ccc(F)cc2)cc1 (configuration not stated)	inconclusive: 70.8 µM [quencher, side channel, single point]
Cc1cccc(NC(=O)c2cccc(NC(=O)Cc3cccs3)c2)c1	inactive
CNC(=O)C(=O)NCC1OCCN1S(=O)(=O)c1ccc(OC)c(OC)c1 (configuration not stated)	inconclusive: 70.8 µM [fluorescent, side channel, single point]
COc1cccc(CNC(=O)CSc2cc(=O)n(C)c3ccccc23)c1	inconclusive: 1.12 µM [fluorescent, side channel, full curve, poor fit]

2 entries picked at random from the list so far, as already listed:
Structure (SMILES)	Potency
CCn1c(SCC#N)nc2cc(S(=O)(=O)N3CCOCC3)ccc21	inconclusive: 50.1 µM [inhibitor, single point]
Cc1ccc(C)c(OCCCC(=O)Nc2ccc(N3CCOCC3)cc2)c1	inactive
